Laboratory results reported in article PMC10279913.
Results are given in words; binding and its absence hold for the method and conditions named. Binding seen in cells or lysates may run through a third protein. These calls come from enrichment with a bait or labelling near it, and not all partners need be listed.

The chains behind the UniProt entries cited, without tags or fusion partners. Where a name states a change or a piece, a line headed by the entry shows the natural chain unless it says otherwise.
UniProt Q9N536: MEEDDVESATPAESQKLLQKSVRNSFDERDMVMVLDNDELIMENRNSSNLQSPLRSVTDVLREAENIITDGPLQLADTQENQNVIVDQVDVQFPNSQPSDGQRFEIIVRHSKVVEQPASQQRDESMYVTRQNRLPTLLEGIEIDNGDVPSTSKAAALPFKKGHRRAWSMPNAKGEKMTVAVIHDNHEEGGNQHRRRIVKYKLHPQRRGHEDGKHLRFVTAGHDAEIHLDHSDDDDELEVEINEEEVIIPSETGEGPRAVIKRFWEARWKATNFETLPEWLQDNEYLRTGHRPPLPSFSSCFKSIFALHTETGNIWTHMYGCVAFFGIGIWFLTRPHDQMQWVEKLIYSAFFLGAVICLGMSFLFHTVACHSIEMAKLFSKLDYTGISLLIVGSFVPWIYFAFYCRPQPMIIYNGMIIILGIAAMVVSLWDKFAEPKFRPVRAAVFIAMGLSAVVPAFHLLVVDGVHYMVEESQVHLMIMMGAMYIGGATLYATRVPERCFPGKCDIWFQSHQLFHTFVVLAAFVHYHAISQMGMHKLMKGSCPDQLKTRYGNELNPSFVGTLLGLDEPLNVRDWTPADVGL

B1: Immunoglobulin domain and leucine-rich repeat–containing protein 2 (protein, UniProt P34595 21-773)
chain: QRNRSSSPSGFLDLQLEKCPQVLGCRCVRDSTRNIQCFSIDESKLLEIQKIYGSNIQRLELHNWQHDQLNFDIFAPFPQLEHIILRDGDLESLNGTVIHPTLKVLSIENSELTSSSEVCRLLSIFPKIQSLSLSKNYFEKFECDTSNTKLKILDLSQNRISHLEVPNTLRVLNVSRNRLTSFENISTKLTDLDISFNKLSLWPSFDDWKFPNLRSLSAIKLDLQTGFQLDAPLLNSLNIDGASLRYLNFHQILTPKLKKFSARYLTELRNIAGRLPSTVTDVAFTDTMLRTLPADFIPMSSTNHMQKVSFDFSTNQLLCDKCLLQWSLPVYAQTSIRKDCNLTREEIESASCKIGVVANDTGIQYGKYEKPTAISCFSYGVPSPKISWWRFRPAEKLGSYDPITDEISYTNVSETMKESYEIQSGGSLLIRSPNRSHVERYVCVVENEYGKDYGIYHFRLDYLDWYSYDVFNSVFWGGLATSLIVCLISFLLNITWILTRKSALWWIQRAERLSRVRKMVEAMEKYRVRQMESLHEKYTKRVQIVRDNYHQQVEALRVSYASQQEKFQNYKAAQVDAVHSHLDAMRDGYNNQLGRVREYGSKRAEQLWESYERQVNRMRTFSLQHRLKMMRQYKVKQRYVNKLLESLQATSPEVQLENEEKVRAALEIPDDLATIDGSMDTPSRLSRSSSFHSLPEYVIDEQGNVRPGIIPTNAPSIRFTTKPTTSSISNEASTSSPSSSGAHRSPDSPPEKR
B2: Fatty acid–binding protein homolog 5 (protein, UniProt O01814 1-136)
chain: MSAEQFVGRWKLVESENFEDYLKEVGVGLLLRKAACAAKPTLEIKVNGNKWHVNQLSTFKNTTLEFTLGVEFDETTPDGRQFKSTITIEDGKVVHVQKRIKDSDHDSVITRWFEGEKLITTLQSGSVISRRAYIRE
B3: Fatty acid–binding protein homolog 6 (protein, UniProt O01812 1-135)
chain: MSQEFVGRWKLIHSENFEEYMKEVGVGLITRKAAANLKPTLEIKVEGDLWYSNQYSTFKNTTLSFKLGQEFDETTPDGRTVKSVVNFENGKFIHIQKKIKDSDKESIITRWLEGDKLITTLESGSVVSRREYVRE
B4: Very-long-chain 3-oxooacyl-coA reductase let-767 (enzyme, UniProt Q09517 1-316)
chain: MACQCFLVGAGYVALAAVAYRLLTIFSNILGPYVLLSPIDLKKRAGASWAVVTGATDGIGKAYAFELARRGFNVLLVSRTQSKLDETKKEILEKYSSIEVRTAAFDFTNAAPSAYKDLLATLNQVEIGVLINNVGMSYEYPDVLHKVDGGIERLANITTINTLPPTLLSAGILPQMVARKAGVIVNVGSSAGANQMALWAVYSATKKYVSWLTAILRKEYEHQGITVQTIAPMMVATKMSKVKRTSFFTPDGAVFAKSALNTVGNTSDTTGYITHQLQLELMDLIPTFIRDKILTNMSVGTRAAALRKKEREAKSQ
B5: Serine hydroxymethyltransferase (enzyme, UniProt P50432 1-507)
chain: MFARIVSRRAATGLFAGASSQCKMADRQVHTPLAKVQRHKYTNNENILVDHVEKVDPEVFDIMKNEKKRQRRGLELIASENFTSKAVMDALGSAMCNKYSEGYPGARYYGGNEFIDQMELLCQKRALEVFGLDPAKWGVNVQPLSGSPANFAVYTAIVGSNGRIMGLDLPDGGHLTHGFFTPARKVSATSEFFQSLPYKVDPTTGLIDYDKLEQNAMLFRPKAIIAGVSCYARHLDYERFRKIATKAGAYLMSDMAHISGLVAAGLIPSPFEYSDVVTTTTHKSLRGPRGALIFYRKGVRSTNAKGVDTLYDLEEKINSAVFPGLQGGPHNHTIAGIAVALRQCLSEDFVQYGEQVLKNAKTLAERMKKHGYALATGGTDNHLLLVDLRPIGVEGARAEHVLDLAHIACNKNTCPGDVSALRPGGIRLGTPALTSRGFQEQDFEKVGDFIHEGVQIAKKYNAEAGKTLKDFKSFTETNEPFKKDVADLAKRVEEFSTKFEIPGNETF
B6: Dolichyl-diphosphooligosaccharide–protein glycosyltransferase 48-kDa subunit (protein, UniProt P45971 21-445)
chain: DRVLVLGETAAVKDTHSVFLNSVKERGHELTVRAADDSQLALFKHGQLIFDHLFILAPGVQVFGGSLSPSEISKFVDAGGNVLVAAGSNIGDALREIAAEHGFEFEEAGTSVIDHHNYDQTLDSGDHTTLVVGKDQLISAELIVGNSAKLHPVLFKGIGLVAGKTNNLALSIVRASGTAYSYDPKAVRATNPSIAGSRTLLVGGLQSRNNARIVFTGSSELFSNTFFSAKTNSVNPSVQGAQSGNADFATAITRWVMKESGVLRVKTVNHHKKGETVPPVEGYFITEDVVYTIEIEELKNGKWVPFQGKDVQLEFVRIDPFVRATLKNSNGRLSVAFKLPDVLGVFKFLVDYRRVGYTHLYDVQQVSVRPLWHTQYERFIRSAYPYYASSFSMMAGLVLFSIVYLYHKDTPVKGAKVLDSEKKKN
B7: Dolichyl-diphosphooligosaccharide–protein glycosyltransferase subunit 1 (protein, UniProt Q9GZH4 16-586)
chain: EDAWKAANVDRTIDATSQIVKVSTLYSFENVGNGPQSKVLIALSKEESATLSFISAGIDGSKGKLKISEKPAEKDLAVYEVDLRTPVAKGAKVTIRINLRITQVLEPLPSKIQQSDSQFVVLHTSAYVPSLYETVTQKTTIRTTQGGKLLSATTVSPSKQETERVIYGPYVNIPAFETKPVKVHYENNSPFVIATIVERFIEVSHWGNIAVEEYIELVHKGAELDGPFSRIDYQMDRRGRRQPALQQFTTVLPAQAKDIYYRDEIGNISTSAVRIRADSVDVEIRPRFPLFGGWKTSYVIGYNLPSEEYLYSKGNQYALKTKLFDHVFNDIVVEKLRTKVLLPEHVKRVKVATPYAVDRRPEELKPTYLDTTGRLVLVLEKENIVPDHSQFFTVTYEFEFVDMLREPLLASAFFFSLFFVIIVYSRFDFTISSDPAKDAEERSQIILGNLAKSVDSKQSAYEDLIEASQQYKSTKNDADLQEAKKTFIAARNQENSTLTDKIATLKTDSGASAAEKASELLKYDKTVFDAVDNYLKAVEKSTTKTAGTEEQQFLNKVKDARNRADSVLASI
B8: 40S ribosomal protein S27 (protein, UniProt Q9TXP0 1-83)
chain: MPLAVDLLHPEPQREIRCHKLKRLVQHPNSYFMDVKCSGCFKISTVFSHATTVVVCVGCNTVLCQPTRGKAKLTEGCSFRKKQ
B9: Putative H/ACA ribonucleoprotein complex subunit 2-like protein (protein, UniProt Q9XXD4 1-163)
chain: MGKRNLDETMNESTVSEANGDATAPTTEKDEYQALCELVNPIAQPLANRKLAKKVYKLIKKASAGDKTLREGIKDVQKELRRNEKGICILAGNVSPIDVYSHIPGICEEKEIPYVYIPSREQLGLAVGHRRPSILIFVKPSGDFKELYDEVAEALRHLTVEAA

Biological target: HA::PAQR-2 (C. elegans) (UniProt Q9N536)
Assay: affinity purification with mass spectrometry; anti-HA immunoprecipitation (rabbit mAb C29F4 + protein A-agarose, 1 h, 4 °C) from lysates of whole worms carrying HA::PAQR-2; 25 mM Tris pH 7.5, 300 mM NaCl, 0.1% NP-40, no protease inhibitor; eluted with 0.2 M glycine pH 2.5; 2 IPs; control: worms without HA-tagged protein

binding, binds:
B1, B2, B3, B4, B5, B6, B7, B8, B9
